In US8563580B2, “Flavivirus inhibitors and methods for their use” (Georgetown University, priority 2008, dated 2013):
Some of these results come from one statement about several compounds together.

The molecules below were run on WNV protease (assay: High Throughput Screen (HTS) protease assay). Conditions: 100 nl of 5 mg/ml compound in DMSO per 30.1 μl well; substrate Boc-Gly-Lys-Arg-AMC 50 μM; DMSO controls = 100% activity.
Type: biochemical, West Nile virus (EG101 strain)
Description: Procedures for expression and purification of WNV (EG101 strain) were similar to those described elsewhere by Mueller et al., Int. J. Biochem. Cell. Biol., 39: 606-14 (2007). Briefly, E. coli Top10 F′ cells (Invitrogen, Carlsbad, Calif.) were transformed with the protease expression plasmid. Cells were grown at 37° C. until the OD600 was ˜0.5. Cells were then induced with isopropyl-1-thio-β-D-galactopyranoside (American Bioanalytical, Natick, Mass.) (0.5 mM), and incubated for 4 h at 37° C. Cells were harvested by centrifugation (5000×g) for 15 min at 4° C., washed once with a buffer containing 50 mM Tris-HCl, pH 7.5, and 200 mM NaCl, centrifuged at 5000×g for 15 min at 4° C., and stored at -80° C. until used.
Proteases were purified by suspending bacterial pellets in 50 mM Hepes, pH 7.0, 500 mM NaCl, (buffer A) with 0.05 mg/ml lysozyme. Cells were incubated for 30 min on ice after addition of 10% stock solution of Triton X-100 (final concentration of 0.5%). Cells were disrupted by sonication for 2 min and the soluble fraction was collected after centrifugation (15,000×g) for 30 min at 4° C. The soluble fraction was incubated for 1 h at 4° C. with Talon resin (BD Bioscience, San Jose, Calif.) which was pre-equilibrated in buffer A. The affinity resin was centrifuged at (400×g) for 10 min at 4° C., washed three times with buffer A, and packed into a column. Washing of the column was continued with the buffer A containing 10 mM imidazole, followed by elution of the protease with buffer A containing 150 mM imidazole. The protease was concentrated and further purified by Sephadex G-75 gel filtration chromatography. The purified protease fractions were pooled and dialyzed against a buffer containing 50 mM Tris-HCl pH 7.5 and 300 mM NaCl (4×1 L). Aliquots (100 μl) were frozen at −80° C.
The protease assay (100 μl) described by Mueller et al., Int. J. Biochem. Cell. Biol. 39: 606-14 (2007) was adapted for a 384-well plate format (30.1 μl). Microtiter plates were loaded sequentially with 14 μl of the reaction buffer containing 200 mM Tris-HCl, pH 9.5, and 30% glycerol (TG buffer) using an automated Wellmate (Matrix, Hudson, N.H.) and 6 μl of WNV protease (0.05 μM) (as prepared above) in TG buffer containing 15 mM NaCl (3 mM final concentration). Plates were then centrifuged at 1000×g for 3 min at room temperature to mix samples and pool liquids at the bottom of the wells. Inhibitor compounds (100 nl of 5 mg/ml in dimethyl sulfoxide; DMSO) were added to each well in duplicate by a pin-transfer mechanism of a robotic delivery system. The final inhibitor concentrations in the assays varied due to different molecular weights of the compounds from the libraries that were screened. Plates were incubated at room temperature to allow for formation of protease/inhibitor complexes. The fluorogenic substrate, t-butyl-oxycarbonyl(Boc)-Gly-Lys-Arg-7-amino-4-methyl coumarin (AMC) (10 μl in TG buffer; 50 μM final concentration in the reaction mixture), was added using the Wellmate, and the plates were centrifuged for 3 min at 1000×g and incubated at room temperature for 15 min. Fluorescence was measured at excitation and emission wavelengths of 385 nm and 465 nm, respectively, on a Perkin-Elmer (Waltham, Mass.) spectrofluorometer. To validate the assay conditions, aprotinin (bovine pancreatic trypsin inhibitor, BPTI) was used as a positive control. Assay mixtures containing DMSO were used as negative controls. The average of fluorescence values in duplicate wells for a given compound was used to determine the percent activity by taking the values obtained with DMSO controls as 100%. Compounds 1-11, 18-32, and 37-101 above were identified. […] Compounds 12-17 are compounds related to those identified in the HTS screen that also show significant WNV protease inhibition, i.e., >95%.

| Structure (SMILES) | % Inhibition (reduction in protease activity) |
| --- | --- |
| Cc1ccnc(NC(c2ccccc2O)c2ccc3cccnc3c2O)c1 (stereo not drawn) [Compound 12] | > 95% |
| Oc1c(C(Nc2nc3ccccc3s2)c2ccccc2)ccc2cccnc12 (stereo not drawn) [Compound 13] | > 95% |
| Oc1c(C(Nc2nccs2)c2cccc(OCc3ccccc3)c2)ccc2cccnc12 (stereo not drawn) [Compound 17] | > 95% |
| Cc1cccc(NC(c2ccccc2OCc2ccccc2)c2ccc3cccnc3c2O)n1 (stereo not drawn) [Compound 15] | > 95% |
| Oc1ccccc1C(Nc1nc2ccccc2s1)c1ccc2cccnc2c1O (stereo not drawn) [Compound 16] | > 95% |
| Oc1c(C(Nc2nccs2)c2ccccc2)ccc2cccnc12 (stereo not drawn) [Compound 14] | > 95% |
